In US12225904B2, “Phenylpyrazole compound and method for controlling plant disease” (SUMITOMO CHEMICAL COMPANY, LIMITED, priority 2019, dated 2025):
Where two headings read alike, the source gives them in different places. Some of these results come from one statement about several compounds together. For at least one compound, name, drawing or mass did not settle the structure.

Tests used:
[1] = system: Septoria leaf blotch (Septoria tritici), QoI resistant strain (cytochrome b 129th phenylalanine mutated to leucine); experiment: Test Example 4: control test against Septoria leaf blotch, growth in titer plate; conditions: diluted with dimethylsulfoxide to 150 ppm, 1 μL + 150 μL potato dextrose broth with conidia; 18° C., 5 days
[2] = system: tomato leaf mold (Cladosporium fulvum), QoI resistant strain (cytochrome b 129th phenylalanine mutated to leucine); experiment: Test Example 2: control test against tomato leaf mold, growth in titer plate; conditions: diluted with dimethylsulfoxide to 150 ppm, 1 μL + 150 μL potato dextrose broth with conidia; 18° C., 5 days
[3] = system: wheat brown rust (Puccinia recondita); experiment: Test Example 12: control test against wheat brown rust, foliar spray on potted wheat; type: in vivo; conditions: 200 ppm foliar spray; wheat cv SHIROGANE; spores inoculated 5 to 7 days after spraying
[4] = system: rice blast (Magnaporthe grisea); type: in vivo; conditions: 200 ppm foliar spray; rice cv HINOHIKARI; contact with infected seedlings 6 to 7 days
[5] = system: barley net blotch (Pyrenophora teres); experiment: Test Example 15: control test against barley net blotch, foliar spray on potted barley; type: in vivo; conditions: 200 ppm foliar spray; barley cv NISHINOHOSHI; spores inoculated 1 day after spraying
[6] = system: Septoria leaf blotch (Septoria tritici), QoI resistant strain (cytochrome b 129th phenylalanine mutated to leucine); experiment: Test Example 3: control test against Septoria leaf blotch, growth in titer plate; conditions: diluted with dimethyl sulfoxide to 1500 ppm, 1 μL + 150 μL potato dextrose broth with conidia; 18° C., 5 days
[7] = system: tomato leaf mold (Cladosporium fulvum), QoI resistant strain (cytochrome b 129th phenylalanine mutated to leucine); experiment: Test Example 1: control test against tomato leaf mold, growth in titer plate; conditions: diluted with dimethyl sulfoxide to 1500 ppm, 1 μL + 150 μL potato dextrose broth with conidia; 18° C., 5 days
[8] = system: barley net blotch (Pyrenophora teres); experiment: Test Example 14: control test against barley net blotch, foliar spray on potted barley; type: in vivo; conditions: 500 ppm foliar spray; barley cv NISHINOHOSHI; spores inoculated 2 days after spraying
[9] = system: wheat brown rust (Puccinia recondita); experiment: Test Example 11: control test against wheat brown rust, foliar spray on potted wheat; type: in vivo; conditions: 500 ppm foliar spray; wheat cv SHIROGANE; spores inoculated 5 to 7 days after spraying
[10] = system: cucumber powdery mildew (Sphaerotheca fuliginea), QoI resistant strain (cytochrome b 143th glycine mutated to alanine); experiment: Test Example 18: control test against cucumber powdery mildew, foliar spray on potted cucumber; type: in vivo; conditions: 500 ppm foliar spray; cucumber cv SAGAMIHANJIRO; spores inoculated after drying; 8 days
[11] = system: rice blast (Magnaporthe grisea); type: in vivo; conditions: 500 ppm foliar spray; rice cv HINOHIKARI; contact with infected seedlings 6 to 7 days
[12] = system: cucumber powdery mildew (Sphaerotheca fuliginea), QoI resistant strain (cytochrome b 143th glycine mutated to alanine); experiment: Test Example 19: control test against cucumber powdery mildew, foliar spray on potted cucumber; type: in vivo; conditions: 200 ppm foliar spray; cucumber cv SAGAMIHANJIRO; spores inoculated after drying; 8 days

Compound: CCCS(=O)(=O)n1ccc(-c2cc(F)c(F)c(F)c2)n1 [compound 44]
- growth of Septoria leaf blotch in treated groups compared to the growth in an untreated group (absorbance at 550 nm) [1]: ≤ 50%
- growth of tomato leaf mold in treated groups compared to the growth in an untreated group (absorbance at 550 nm) [2]: ≤ 50%

Compound: CCCS(=O)(=O)n1ccc(-c2ccc(F)c(F)c2)n1 [compound 42]
- growth of Septoria leaf blotch in treated groups compared to the growth in an untreated group (absorbance at 550 nm) [1]: ≤ 50%
- growth of tomato leaf mold in treated groups compared to the growth in an untreated group (absorbance at 550 nm) [2]: ≤ 50%

Compound: O=S(=O)(n1ccc(-c2ccc(Cl)cc2)n1)C(F)(F)F [compound 31]
- lesion area compared to the lesion area in an untreated wheat [3]: ≤ 30%
- growth of Septoria leaf blotch in treated groups compared to the growth in an untreated group (absorbance at 550 nm) [1]: ≤ 50%

Compound: CCCS(=O)(=O)n1ccc(-c2cccc(OCc3ccccc3)c2)n1 [compound 144]
- lesion area compared to the lesion area in an untreated wheat [3]: ≤ 30%

Compound: CC(C)S(=O)(=O)n1ccc(-c2ccc(Cl)cc2)n1 [compound 3]
- lesion area compared to the lesion area in an untreated rice [4]: ≤ 30%

Compound: CCS(=O)(=O)n1ccc(-c2ccc3c(c2)CCCC3)n1 [compound 103]
- growth of Septoria leaf blotch in treated groups compared to the growth in an untreated group (absorbance at 550 nm) [1]: ≤ 50%
- growth of tomato leaf mold in treated groups compared to the growth in an untreated group (absorbance at 550 nm) [2]: ≤ 50%

Compound: CCS(=O)(=O)n1ccc(-c2ccc(C#N)cc2)n1 [compound 1]
- lesion area compared to the lesion area in an untreated barley [5]: ≤ 30%

Compound: O=S(=O)(CCCCl)n1ccc(-c2ccc(Cl)cc2)n1 [compound 7]
- lesion area compared to the lesion area in an untreated rice [4]: ≤ 30%

Compound: CCCS(=O)(=O)n1ccc(-c2ccc(Cl)c(C)c2)n1 [compound 43]
- growth of Septoria leaf blotch in treated groups compared to the growth in an untreated group (absorbance at 550 nm) [1]: ≤ 50%
- growth of tomato leaf mold in treated groups compared to the growth in an untreated group (absorbance at 550 nm) [2]: ≤ 50%

Compound: CCCS(=O)(=O)n1ccc(-c2ccc(I)cc2)n1 [compound 56]
- growth of Septoria leaf blotch in treated groups compared to the growth in an untreated group (absorbance at 550 nm) [6]: ≤ 50%
- growth of tomato leaf mold in treated groups compared to the growth in an untreated group (absorbance at 550 nm) [7]: ≤ 50%
- lesion area compared to the lesion area in an untreated barley [8]: ≤ 30%

Compound: CCS(=O)(=O)n1ccc(-c2cc(F)c(F)c(F)c2)n1 [compound 13]
- lesion area compared to the lesion area in an untreated wheat [9]: ≤ 30%

Compound: CCS(=O)(=O)n1ccc(-c2ccc(F)c(C(F)(F)F)c2)n1 [compound 39]
- growth of tomato leaf mold in treated groups compared to the growth in an untreated group (absorbance at 550 nm) [2]: ≤ 50%

Compound: CCS(=O)(=O)n1ccc(-c2ccc(Cl)cc2Cl)n1 [compound 37]
- growth of Septoria leaf blotch in treated groups compared to the growth in an untreated group (absorbance at 550 nm) [1]: ≤ 50%
- growth of tomato leaf mold in treated groups compared to the growth in an untreated group (absorbance at 550 nm) [2]: ≤ 50%

Compound: CCCCS(=O)(=O)n1ccc(-c2ccc(Br)c(F)c2)n1 [compound 80]
- growth of Septoria leaf blotch in treated groups compared to the growth in an untreated group (absorbance at 550 nm) [6]: ≤ 50%
- lesion area compared to the lesion area in an untreated barley [8]: ≤ 30%

Compound: CCCS(=O)(=O)n1ccc(-c2cccc(OCc3ccc(C(C)C)cc3)c2)n1 [compound 173]
- lesion area compared to the lesion area in an untreated wheat [3]: ≤ 30%
- lesion area compared to the lesion area in an untreated barley [8]: ≤ 30%

Compound: CCS(=O)(=O)n1ccc(-c2ccc(Cl)c(C)c2)n1 [compound 20]
- lesion area compared to the lesion area in an untreated rice [4]: ≤ 30%
- growth of Septoria leaf blotch in treated groups compared to the growth in an untreated group (absorbance at 550 nm) [1]: ≤ 50%

Compound: CCCS(=O)(=O)n1ccc(-c2ccc(Cl)cc2)n1 [compound 4]
- lesion area compared to the lesion area in an untreated barley [8]: ≤ 30%

Compound: CCS(=O)(=O)n1ccc(-c2ccc(OC(F)(F)F)cc2)n1 [compound 38]
- growth of Septoria leaf blotch in treated groups compared to the growth in an untreated group (absorbance at 550 nm) [1]: ≤ 50%
- growth of tomato leaf mold in treated groups compared to the growth in an untreated group (absorbance at 550 nm) [2]: ≤ 50%

Compound: CCS(=O)(=O)n1ccc(-c2ccc(C3CC3)cc2)n1 [compound 29]
- growth of Septoria leaf blotch in treated groups compared to the growth in an untreated group (absorbance at 550 nm) [1]: ≤ 50%
- lesion area compared to the lesion area in an untreated barley [5]: ≤ 30%

Compound: Cc1cc(-c2ccn(S(=O)(=O)N(C)C)n2)ccc1Cl [compound 72]
- growth of Septoria leaf blotch in treated groups compared to the growth in an untreated group (absorbance at 550 nm) [6]: ≤ 50%
- growth of tomato leaf mold in treated groups compared to the growth in an untreated group (absorbance at 550 nm) [7]: ≤ 50%
- lesion area compared to the lesion area in an untreated barley [5]: ≤ 30%

Compound: CCCS(=O)(=O)n1ccc(-c2ccc(Cl)c(Cl)c2)n1 [compound 28]
- lesion area compared to the lesion area in an untreated rice [4]: ≤ 30%
- lesion area compared to the lesion area in an untreated cucumber [10]: ≤ 30%

Compound: CCS(=O)(=O)n1ccc(-c2ccc(C)c(Cl)c2)n1 [compound 34]
- growth of Septoria leaf blotch in treated groups compared to the growth in an untreated group (absorbance at 550 nm) [1]: ≤ 50%
- growth of tomato leaf mold in treated groups compared to the growth in an untreated group (absorbance at 550 nm) [2]: ≤ 50%

Compound: CS(=O)(=O)n1ccc(-c2ccc(Cl)c(Cl)c2)n1 [compound 14]
- lesion area compared to the lesion area in an untreated rice [11]: ≤ 30%

Compound: CCCS(=O)(=O)n1ccc(-c2cccc(CC)c2)n1 [compound 148]
- lesion area compared to the lesion area in an untreated wheat [3]: ≤ 30%

Compound: CCCS(=O)(=O)n1ccc(-c2cccc(OCC3CC3)c2)n1 [compound 154]
- lesion area compared to the lesion area in an untreated wheat [3]: ≤ 30%

Compound: CCS(=O)(=O)n1ccc(-c2ccc([N+](=O)[O-])cc2)n1 [compound 32]
- growth of Septoria leaf blotch in treated groups compared to the growth in an untreated group (absorbance at 550 nm) [1]: ≤ 50%
- growth of tomato leaf mold in treated groups compared to the growth in an untreated group (absorbance at 550 nm) [2]: ≤ 50%
- lesion area compared to the lesion area in an untreated barley [5]: ≤ 30%

Compound: CCS(=O)(=O)n1ccc(-c2ccc(C)c([N+](=O)[O-])c2)n1 [compound 54]
- growth of Septoria leaf blotch in treated groups compared to the growth in an untreated group (absorbance at 550 nm) [6]: ≤ 50%
- growth of tomato leaf mold in treated groups compared to the growth in an untreated group (absorbance at 550 nm) [7]: ≤ 50%

Compound: CCS(=O)(=O)n1ccc(-c2cccc(OCC3CC3)c2)n1 [compound 153]
- lesion area compared to the lesion area in an untreated wheat [3]: ≤ 30%

Compound: CCS(=O)(=O)n1ccc(-c2cccc(NC(=O)C3CC3)c2)n1 [compound 159]
- lesion area compared to the lesion area in an untreated wheat [3]: ≤ 30%

Compound: CCCS(=O)(=O)n1ccc(-c2ccc(Br)c(F)c2)n1 [compound 59]
- growth of Septoria leaf blotch in treated groups compared to the growth in an untreated group (absorbance at 550 nm) [6]: ≤ 50%
- growth of tomato leaf mold in treated groups compared to the growth in an untreated group (absorbance at 550 nm) [7]: ≤ 50%

Compound: CCc1cccc(-c2ccn(S(=O)(=O)CC)n2)c1 [compound 147]
- lesion area compared to the lesion area in an untreated cucumber [12]: ≤ 30%

Compound: CCS(=O)(=O)n1ccc(-c2ccc(C(F)(F)F)c(Cl)c2)n1 [compound 112]
- growth of Septoria leaf blotch in treated groups compared to the growth in an untreated group (absorbance at 550 nm) [6]: ≤ 50%
- growth of tomato leaf mold in treated groups compared to the growth in an untreated group (absorbance at 550 nm) [7]: ≤ 50%
- lesion area compared to the lesion area in an untreated wheat [3]: ≤ 30%

Compound: CCCS(=O)(=O)n1ccc(-c2ccc(Br)cc2)n1 [compound 40]
- growth of Septoria leaf blotch in treated groups compared to the growth in an untreated group (absorbance at 550 nm) [1]: ≤ 50%
- growth of tomato leaf mold in treated groups compared to the growth in an untreated group (absorbance at 550 nm) [2]: ≤ 50%

Compound: C=CS(=O)(=O)n1ccc(-c2cccc(C(=O)Nc3ccccc3)c2)n1 [compound 166]
- lesion area compared to the lesion area in an untreated cucumber [12]: ≤ 30%

Compound: O=S(=O)(C1CC1)n1ccc(-c2ccc(Cl)cc2)n1 [compound 15]
- lesion area compared to the lesion area in an untreated barley [5]: ≤ 30%

Compound: CC=CS(=O)(=O)n1ccc(-c2ccc(Br)c(F)c2)n1 [compound 75]
- growth of Septoria leaf blotch in treated groups compared to the growth in an untreated group (absorbance at 550 nm) [6]: ≤ 50%
- growth of tomato leaf mold in treated groups compared to the growth in an untreated group (absorbance at 550 nm) [7]: ≤ 50%
- lesion area compared to the lesion area in an untreated barley [8]: ≤ 30%

Compound: CN(C)S(=O)(=O)n1ccc(-c2ccc(F)c(Br)c2)n1 [compound 64]
- growth of Septoria leaf blotch in treated groups compared to the growth in an untreated group (absorbance at 550 nm) [6]: ≤ 50%
- growth of tomato leaf mold in treated groups compared to the growth in an untreated group (absorbance at 550 nm) [7]: ≤ 50%

Compound: O=S(=O)(N1CCCC1)n1ccc(-c2cc(F)c(Br)c(F)c2)n1 [compound 79]
- lesion area compared to the lesion area in an untreated barley [8]: ≤ 30%

Compound: CCS(=O)(=O)n1ccc(-c2ccc(Cl)c(C(F)(F)F)c2)n1 [compound 33]
- lesion area compared to the lesion area in an untreated rice [4]: ≤ 30%
- growth of Septoria leaf blotch in treated groups compared to the growth in an untreated group (absorbance at 550 nm) [1]: ≤ 50%
- growth of tomato leaf mold in treated groups compared to the growth in an untreated group (absorbance at 550 nm) [2]: ≤ 50%

Compound: C=CCS(=O)(=O)n1ccc(-c2ccc(Br)c(F)c2)n1 [compound 74]
- growth of Septoria leaf blotch in treated groups compared to the growth in an untreated group (absorbance at 550 nm) [6]: ≤ 50%
- growth of tomato leaf mold in treated groups compared to the growth in an untreated group (absorbance at 550 nm) [7]: ≤ 50%

Compound: CCS(=O)(=O)n1ccc(-c2cc(Cl)c(Cl)c(Cl)c2)n1 [compound 27]
- lesion area compared to the lesion area in an untreated rice [11]: ≤ 30%
- lesion area compared to the lesion area in an untreated wheat [9]: ≤ 30%
